From publication PMC12774541
Substitutions are numbered along the chain they refer to. Results are given in words; binding and its absence hold for the method and conditions named. In cells and extracts the contact can be indirect. Some binding calls cover weakened binding; strength is not graded here. For part of these data: Tags and fused reporters may be left off the sequences shown.

Sequences of proteins named here, by UniProt entry; tags and fusion partners are left off.
UniProt Q15796: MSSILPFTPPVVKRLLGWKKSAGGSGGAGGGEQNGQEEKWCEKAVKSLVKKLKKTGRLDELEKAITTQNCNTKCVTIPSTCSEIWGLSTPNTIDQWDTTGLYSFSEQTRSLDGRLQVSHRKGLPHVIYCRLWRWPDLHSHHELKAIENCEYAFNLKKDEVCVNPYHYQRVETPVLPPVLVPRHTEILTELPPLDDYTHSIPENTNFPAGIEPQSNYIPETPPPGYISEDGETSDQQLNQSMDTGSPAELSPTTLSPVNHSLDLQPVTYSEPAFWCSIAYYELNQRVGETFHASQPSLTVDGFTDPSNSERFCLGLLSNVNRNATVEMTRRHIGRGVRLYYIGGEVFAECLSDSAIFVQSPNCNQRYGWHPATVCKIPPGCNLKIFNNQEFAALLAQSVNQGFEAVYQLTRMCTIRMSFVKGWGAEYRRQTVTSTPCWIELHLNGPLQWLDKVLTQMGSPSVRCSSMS

Tests used:
Assay in all cases: co-IP; FLAG-KLC2-WT, R312W or L523I transiently expressed in HEK293T; lysis buffer 150 mM NaCl, 50 mM Tris-HCl pH 7.4, 0.5% NP-40 with protease and phosphatase inhibitors; 500-1000 ug lysate protein precipitated with anti-FLAG M2 affinity gel at 4°C overnight; immunoblot
[1] = target: T1, FLAG-tagged KLC2-L523I (human) (UniProt Q9H0B6)
T1 sequence: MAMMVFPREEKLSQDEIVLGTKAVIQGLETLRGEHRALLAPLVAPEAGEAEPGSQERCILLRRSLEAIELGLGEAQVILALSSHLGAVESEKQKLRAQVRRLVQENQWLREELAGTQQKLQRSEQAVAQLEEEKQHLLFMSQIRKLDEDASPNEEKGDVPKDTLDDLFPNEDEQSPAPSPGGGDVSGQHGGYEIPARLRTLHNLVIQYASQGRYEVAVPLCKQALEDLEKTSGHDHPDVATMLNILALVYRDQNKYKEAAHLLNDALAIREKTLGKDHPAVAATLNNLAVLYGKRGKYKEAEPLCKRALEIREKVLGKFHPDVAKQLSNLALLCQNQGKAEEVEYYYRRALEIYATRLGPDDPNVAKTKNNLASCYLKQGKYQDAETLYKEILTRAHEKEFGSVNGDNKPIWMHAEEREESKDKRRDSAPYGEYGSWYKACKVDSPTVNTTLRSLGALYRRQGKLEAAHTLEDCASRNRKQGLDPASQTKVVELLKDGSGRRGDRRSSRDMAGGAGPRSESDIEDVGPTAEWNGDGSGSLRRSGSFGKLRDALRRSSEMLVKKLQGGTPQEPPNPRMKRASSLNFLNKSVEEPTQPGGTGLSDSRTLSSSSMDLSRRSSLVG

[2] = target: FLAG-tagged KLC2-WT (kinesin light chain 2, wild type) (human) (UniProt Q9H0B6)
[3] = target: T2, FLAG-tagged KLC2-R312W (human) (UniProt Q9H0B6)
T2 sequence: T1 sequence with R312W, I523L

Measured: binding

mothers against decapentaplegic homolog 2 (SMAD2) (from UniProt Q15796 1-467)
binds: all assays above
